Data taken from doi:10.1101/2022.03.16.484629.
Read-outs that look alike come from different tables or passages of the source. No constants are given. Whether binding was seen depends on the method and setting. Binding seen in cells or lysates may run through a third protein. These calls come from enrichment with a bait or labelling near it, and not all partners need be listed. For some of these results: A no says only that the protein was not detected with the bait. One block for each molecule: values may come before it.

Sequences of proteins named here, by UniProt entry; tags and fusion partners are left off. A change or cut given only in a name is not applied to a line headed by its entry. A line that says so, or that is headed by a name, gives the form on record, which may keep a tag or linker. Residues count along the entry.
UniProt P62258: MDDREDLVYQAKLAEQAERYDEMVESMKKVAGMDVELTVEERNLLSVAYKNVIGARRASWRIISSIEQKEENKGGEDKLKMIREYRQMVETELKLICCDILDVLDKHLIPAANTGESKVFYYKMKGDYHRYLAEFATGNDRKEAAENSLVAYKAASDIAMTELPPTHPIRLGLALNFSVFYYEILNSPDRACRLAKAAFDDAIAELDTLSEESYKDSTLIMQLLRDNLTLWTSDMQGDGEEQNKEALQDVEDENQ
UniProt P38646, residues 47-679: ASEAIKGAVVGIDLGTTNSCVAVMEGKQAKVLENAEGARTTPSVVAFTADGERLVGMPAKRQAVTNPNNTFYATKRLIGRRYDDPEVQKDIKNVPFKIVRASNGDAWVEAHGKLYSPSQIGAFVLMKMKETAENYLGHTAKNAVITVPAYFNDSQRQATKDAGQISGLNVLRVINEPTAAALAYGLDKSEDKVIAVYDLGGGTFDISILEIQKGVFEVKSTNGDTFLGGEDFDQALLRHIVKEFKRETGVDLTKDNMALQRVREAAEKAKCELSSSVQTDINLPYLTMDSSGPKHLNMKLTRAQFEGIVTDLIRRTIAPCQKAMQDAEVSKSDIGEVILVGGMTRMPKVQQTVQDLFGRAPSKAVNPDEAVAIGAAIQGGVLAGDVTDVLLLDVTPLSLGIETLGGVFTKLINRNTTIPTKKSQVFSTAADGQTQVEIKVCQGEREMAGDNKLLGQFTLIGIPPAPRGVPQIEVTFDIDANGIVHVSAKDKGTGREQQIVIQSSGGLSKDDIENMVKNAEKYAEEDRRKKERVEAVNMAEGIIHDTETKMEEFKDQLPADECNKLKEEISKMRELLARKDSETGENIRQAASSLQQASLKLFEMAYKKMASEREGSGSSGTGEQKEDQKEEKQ
UniProt P21333: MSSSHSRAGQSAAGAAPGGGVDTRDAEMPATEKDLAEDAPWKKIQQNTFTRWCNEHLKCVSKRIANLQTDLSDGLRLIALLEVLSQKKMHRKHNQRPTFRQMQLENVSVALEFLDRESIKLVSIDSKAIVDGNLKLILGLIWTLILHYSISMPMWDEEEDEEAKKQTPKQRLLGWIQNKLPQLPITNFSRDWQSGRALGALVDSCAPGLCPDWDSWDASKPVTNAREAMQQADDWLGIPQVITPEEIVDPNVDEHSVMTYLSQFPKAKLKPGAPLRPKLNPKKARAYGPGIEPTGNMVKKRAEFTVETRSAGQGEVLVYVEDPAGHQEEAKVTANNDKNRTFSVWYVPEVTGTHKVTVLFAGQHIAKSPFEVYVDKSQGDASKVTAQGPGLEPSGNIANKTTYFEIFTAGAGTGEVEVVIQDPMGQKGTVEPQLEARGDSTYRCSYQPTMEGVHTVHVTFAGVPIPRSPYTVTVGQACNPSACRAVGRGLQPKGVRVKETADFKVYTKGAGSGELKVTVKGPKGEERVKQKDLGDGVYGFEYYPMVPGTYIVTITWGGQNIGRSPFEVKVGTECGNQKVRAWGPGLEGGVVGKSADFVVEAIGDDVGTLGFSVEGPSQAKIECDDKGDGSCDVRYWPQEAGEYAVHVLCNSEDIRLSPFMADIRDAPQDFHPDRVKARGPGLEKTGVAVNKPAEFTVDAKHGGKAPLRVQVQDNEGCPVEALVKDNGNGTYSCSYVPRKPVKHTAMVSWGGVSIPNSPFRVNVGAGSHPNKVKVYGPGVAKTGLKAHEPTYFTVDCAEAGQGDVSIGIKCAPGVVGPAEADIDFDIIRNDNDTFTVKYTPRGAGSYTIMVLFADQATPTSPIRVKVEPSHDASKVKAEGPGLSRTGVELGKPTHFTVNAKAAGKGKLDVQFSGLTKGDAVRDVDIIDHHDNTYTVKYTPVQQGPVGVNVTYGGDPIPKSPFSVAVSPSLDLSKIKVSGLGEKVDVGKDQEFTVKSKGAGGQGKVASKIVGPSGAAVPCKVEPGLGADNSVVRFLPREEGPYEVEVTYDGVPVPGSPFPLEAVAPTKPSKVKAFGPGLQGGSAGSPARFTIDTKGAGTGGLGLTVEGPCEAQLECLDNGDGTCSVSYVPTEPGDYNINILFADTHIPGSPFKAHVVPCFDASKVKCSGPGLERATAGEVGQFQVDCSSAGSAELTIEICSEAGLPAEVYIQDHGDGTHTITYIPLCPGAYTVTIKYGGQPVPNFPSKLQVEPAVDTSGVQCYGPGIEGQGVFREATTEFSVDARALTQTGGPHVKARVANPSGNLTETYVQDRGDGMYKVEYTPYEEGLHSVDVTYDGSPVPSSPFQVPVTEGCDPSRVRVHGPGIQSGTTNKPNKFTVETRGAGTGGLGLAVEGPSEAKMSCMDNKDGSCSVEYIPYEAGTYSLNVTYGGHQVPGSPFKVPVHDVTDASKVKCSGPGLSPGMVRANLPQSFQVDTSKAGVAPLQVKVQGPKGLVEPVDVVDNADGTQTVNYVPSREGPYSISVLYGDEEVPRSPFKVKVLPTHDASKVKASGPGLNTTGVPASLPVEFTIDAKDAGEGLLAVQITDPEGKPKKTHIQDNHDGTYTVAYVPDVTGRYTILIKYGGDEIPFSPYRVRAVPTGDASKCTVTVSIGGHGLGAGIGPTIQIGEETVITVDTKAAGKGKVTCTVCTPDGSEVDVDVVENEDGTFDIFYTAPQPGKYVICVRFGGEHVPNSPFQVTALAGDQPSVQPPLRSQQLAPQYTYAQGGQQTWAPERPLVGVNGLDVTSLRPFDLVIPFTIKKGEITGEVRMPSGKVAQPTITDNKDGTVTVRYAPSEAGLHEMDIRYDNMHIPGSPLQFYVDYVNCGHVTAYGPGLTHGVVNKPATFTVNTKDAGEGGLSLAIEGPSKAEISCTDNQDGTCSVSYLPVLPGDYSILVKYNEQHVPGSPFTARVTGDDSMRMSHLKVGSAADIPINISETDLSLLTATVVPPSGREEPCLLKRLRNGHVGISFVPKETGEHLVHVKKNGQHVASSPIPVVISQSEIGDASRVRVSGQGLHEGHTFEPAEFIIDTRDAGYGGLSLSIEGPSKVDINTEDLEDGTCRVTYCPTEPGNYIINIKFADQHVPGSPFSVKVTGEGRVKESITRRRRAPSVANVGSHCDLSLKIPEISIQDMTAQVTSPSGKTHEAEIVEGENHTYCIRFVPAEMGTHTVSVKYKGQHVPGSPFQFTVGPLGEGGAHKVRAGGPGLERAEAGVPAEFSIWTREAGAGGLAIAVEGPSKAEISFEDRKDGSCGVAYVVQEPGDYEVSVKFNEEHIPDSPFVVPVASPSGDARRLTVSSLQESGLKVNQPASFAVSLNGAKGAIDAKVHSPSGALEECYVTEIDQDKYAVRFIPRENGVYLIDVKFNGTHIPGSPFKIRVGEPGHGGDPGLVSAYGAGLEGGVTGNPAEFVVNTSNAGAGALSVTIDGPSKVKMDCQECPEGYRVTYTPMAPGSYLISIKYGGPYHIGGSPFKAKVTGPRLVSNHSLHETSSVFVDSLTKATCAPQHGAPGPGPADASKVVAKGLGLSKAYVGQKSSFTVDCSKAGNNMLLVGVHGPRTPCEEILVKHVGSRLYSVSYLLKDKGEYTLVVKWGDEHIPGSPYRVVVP
HNRNPA2 (P22626-2, form named): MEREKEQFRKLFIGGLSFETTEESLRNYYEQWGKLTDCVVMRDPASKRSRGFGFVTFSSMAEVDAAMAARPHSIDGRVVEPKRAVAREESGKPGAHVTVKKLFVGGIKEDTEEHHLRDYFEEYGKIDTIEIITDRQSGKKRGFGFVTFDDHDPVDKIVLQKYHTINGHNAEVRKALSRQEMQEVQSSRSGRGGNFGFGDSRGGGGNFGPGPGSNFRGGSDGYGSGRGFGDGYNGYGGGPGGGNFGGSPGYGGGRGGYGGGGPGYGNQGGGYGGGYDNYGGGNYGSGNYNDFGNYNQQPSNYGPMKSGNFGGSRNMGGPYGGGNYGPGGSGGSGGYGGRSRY
UniProt P04792: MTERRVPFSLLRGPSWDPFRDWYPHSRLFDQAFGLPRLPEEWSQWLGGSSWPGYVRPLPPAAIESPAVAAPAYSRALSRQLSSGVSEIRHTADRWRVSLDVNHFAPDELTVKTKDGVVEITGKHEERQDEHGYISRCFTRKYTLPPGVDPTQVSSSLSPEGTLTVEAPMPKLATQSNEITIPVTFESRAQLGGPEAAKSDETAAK
UniProt Q9BQE3: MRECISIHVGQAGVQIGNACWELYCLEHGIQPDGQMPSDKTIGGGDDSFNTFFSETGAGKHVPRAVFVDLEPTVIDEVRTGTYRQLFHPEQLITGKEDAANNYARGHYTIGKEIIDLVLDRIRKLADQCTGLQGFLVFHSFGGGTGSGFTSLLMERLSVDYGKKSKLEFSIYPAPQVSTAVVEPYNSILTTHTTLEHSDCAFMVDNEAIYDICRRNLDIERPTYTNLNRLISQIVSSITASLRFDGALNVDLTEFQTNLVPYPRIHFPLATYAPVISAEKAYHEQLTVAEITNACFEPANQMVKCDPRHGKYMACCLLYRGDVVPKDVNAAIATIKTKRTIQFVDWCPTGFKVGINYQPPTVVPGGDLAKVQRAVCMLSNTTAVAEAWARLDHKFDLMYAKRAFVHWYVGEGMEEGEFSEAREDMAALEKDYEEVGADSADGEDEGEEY

How the values were obtained:
Experiment in all cases: affinity purification with mass spectrometry
[1] = target: T1, α-1 syntrophin (SNTA1) (human (endogenous in MCF-7)) (UniProt Q13424)
T1 sequence: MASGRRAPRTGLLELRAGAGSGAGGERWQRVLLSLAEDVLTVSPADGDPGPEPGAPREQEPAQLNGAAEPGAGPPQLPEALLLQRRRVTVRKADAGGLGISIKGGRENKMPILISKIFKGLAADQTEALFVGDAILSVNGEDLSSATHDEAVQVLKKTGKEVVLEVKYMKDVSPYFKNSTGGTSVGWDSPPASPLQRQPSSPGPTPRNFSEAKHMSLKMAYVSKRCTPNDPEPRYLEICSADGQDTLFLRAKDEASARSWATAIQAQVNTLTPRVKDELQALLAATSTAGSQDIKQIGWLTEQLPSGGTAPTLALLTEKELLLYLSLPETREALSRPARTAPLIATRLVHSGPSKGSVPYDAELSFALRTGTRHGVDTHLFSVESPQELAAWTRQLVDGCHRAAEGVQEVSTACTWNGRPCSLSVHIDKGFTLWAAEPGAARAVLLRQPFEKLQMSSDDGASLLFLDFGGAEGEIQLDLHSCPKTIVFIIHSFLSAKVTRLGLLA

[2] = target: T1, α-1 syntrophin (SNTA1) (human (endogenous in MCF-7)); remark: listed apart in the source
[3] = target: T1, α-1 syntrophin (SNTA1) (human (endogenous in MCF-7)); remark: listed apart in the source

- binding [1]: binds
Molecule: 14-3-3 protein epsilon (from UniProt P62258 1-255)

- binding [1]: binds
Molecule: AHNAK (from UniProt Q09666 1-5890)

- binding [1]: binds
Molecule: Peroxiredoxin-4 isoform X1 (human (endogenous in MCF-7))

- binding [1]: no binding
- binding [2]: no binding
Molecule: Stress-70 protein (from UniProt P38646 47-679)

- binding [1]: binds
B2: Keratin type I cytoskeletal 18 (protein, UniProt P05783 1-430)
chain: MSFTTRSTFSTNYRSLGSVQAPSYGARPVSSAASVYAGAGGSGSRISVSRSTSFRGGMGSGGLATGIAGGLAGMGGIQNEKETMQSLNDRLASYLDRVRSLETENRRLESKIREHLEKKGPQVRDWSHYFKIIEDLRAQIFANTVDNARIVLQIDNARLAADDFRVKYETELAMRQSVENDIHGLRKVIDDTNITRLQLETEIEALKEELLFMKKNHEEEVKGLQAQIASSGLTVEVDAPKSQDLAKIMADIRAQYDELARKNREELDKYWSQQIEESTTVVTTQSAEVGAAETTLTELRRTVQSLEIDLDSMRNLKASLENSLREVEARYALQMEQLNGILLHLESELAQTRAEGQRQAQEYEALLNIKVKLEAEIATYRRLLEDGEDFNLGDALDSSNSMQTIQKTTTRRIVDGKVVSETNDTKVLRH

More lines, now with the values behind:

Molecule: E3 ubiquitin-protein ligase RNF213 isoform X2 (human (endogenous in MCF-7))
- binding [1]: binds

Molecule: Filamin A isoform 2 (from UniProt P21333 1-2647)
- binding [1]: no binding
- binding [2]: no binding

Molecule: HIST1H2B (human (endogenous in MCF-7))
- binding [1]: binds

Molecule: HNRNPA2 (from UniProt P22626-2 1-341)
- binding [1]: no binding

Molecule: HSPB1 (from UniProt P04792 1-205)
- binding [1]: binds
- binding [3]: binds

Molecule: TUBA1C (from UniProt Q9BQE3 1-449)
- binding [1]: no binding

B1: CCDC124 (protein, UniProt Q96CT7 1-223)
chain: MPKKFQGENTKSAAARARRAEAKAAADAKKQKELEDAYWKDDDKHVMRKEQRKEEKEKRRLDQLERKKETQRLLEEEDSKLKGGKAPRVATSSKVTRAQIEDTLRRDHQLREAPDTAEKAKSHLEVPLEENVNRRVLEEGSVEARTIEDAIAVLSVAEEAADRHPERRMRAAFTAFEEAQLPRLKQENPNMRLSQLKQLLKKEWLRSPDNPMNQRAVPFNAPK
- binding [1]: no binding

B3: Protein S100-A11 (protein, UniProt P31949 1-105)
chain: MAKISSPTETERCIESLIAVFQKYAGKDGYNYTLSKTEFLSFMNTELAAFTKNQKDPGVLDRMMKKLDTNSDGQLDFSEFLNLIGGLAMACHDSFLKAVPSQKRT
- binding [1]: binds
